In patent US8741843B2, “Compositions and methods for inducing angiogenesis” (priority 2006, dated 2014):
Some results were stated once for a whole list of compounds, not compound by compound.

Each sequence was assayed on GRP78 receptor on endothelial cells (assay: Competitive binding of ADOPeps to GRP78 (anti-GRP78 antibody ELISA on endothelial cells)). Settings: increasing concentrations 0.01, 0.1, 1 microgram per ml; antibody 2 μg/ml.
Parameters: species or system human
Protocol: FIG. 19 is a graph depicting inhibition of binding (in percentages) of anti-GRP78 antibody to endothelial cells by increasing concentrations of ADOPep1, 2, and 3 peptides. Endothelial cells were incubated for 2 hours with increasing concentrations of ADOPeps, following which the cells were incubated for another 1 hour with the 2 μg/ml of anti-GRP78 antibody and the amount of bound antibody on EC was detected using an ELISA reader.
Endothelial cells (20,000 per well) were seeded in 96 well plates for 24 hours in the presence of the complete medium. Plates were washed with PBS over night and rehydrated with PBS, 0.1% Na Azide and 5% FCS. ADOPep1, ADOPep2 and ADOPep3 were added to washed plates for 2 hours at room temperature at concentrations of 0.01, 0.1 and 1 microgram per ml. Anti-GRP78 antibody (goat polyclona IgG, Santa Cruz Biotechnology, Calif., USA) was added to the plates for 1 hour at room temperature at a concentration of 2 micrograms/ml per well. After washing, bound anti-GRP78 antibody was detected by incubation with anti-goat IgG Peroxidase conjugated (Jackson Immuneresearch Laboratories, PA, USA). After 5 washes with PBS-0.1% Tween 20, 100 μl/well of TMB+ Substrate-Chromogen (DAKOCytomation, CA, USA) was added for a maximum of 30 minutes. Reaction was stopped with 1N HCl. Color developed was determined by an ELISA reader at 450 nm.

Sequence | inhibition of binding of the anti-GRP78 antibody to endothelial cells
AVTLENFLHWRR [ADOPep3, ADAM15 derived peptide] | up to 50%
ENFLHWRRAHLL [ADOPep2, ADAM15 derived peptide] | up to 50%
HWRRAHLLPRLP [ADOPep1, ADAM15 derived peptide, amino acids 286-297 of the metalloprotease domain] | up to 50%
